# These are yes or no findings as the source states them, for the method shown. Binding seen in cells or lysates may run through a third protein. Some results given as binding are weak or reduced against the parent protein; the word gives no strength.
# Protein sequences, listed by entry. Tags and fused reporters are not part of them.
# UniProt Q9NQB0: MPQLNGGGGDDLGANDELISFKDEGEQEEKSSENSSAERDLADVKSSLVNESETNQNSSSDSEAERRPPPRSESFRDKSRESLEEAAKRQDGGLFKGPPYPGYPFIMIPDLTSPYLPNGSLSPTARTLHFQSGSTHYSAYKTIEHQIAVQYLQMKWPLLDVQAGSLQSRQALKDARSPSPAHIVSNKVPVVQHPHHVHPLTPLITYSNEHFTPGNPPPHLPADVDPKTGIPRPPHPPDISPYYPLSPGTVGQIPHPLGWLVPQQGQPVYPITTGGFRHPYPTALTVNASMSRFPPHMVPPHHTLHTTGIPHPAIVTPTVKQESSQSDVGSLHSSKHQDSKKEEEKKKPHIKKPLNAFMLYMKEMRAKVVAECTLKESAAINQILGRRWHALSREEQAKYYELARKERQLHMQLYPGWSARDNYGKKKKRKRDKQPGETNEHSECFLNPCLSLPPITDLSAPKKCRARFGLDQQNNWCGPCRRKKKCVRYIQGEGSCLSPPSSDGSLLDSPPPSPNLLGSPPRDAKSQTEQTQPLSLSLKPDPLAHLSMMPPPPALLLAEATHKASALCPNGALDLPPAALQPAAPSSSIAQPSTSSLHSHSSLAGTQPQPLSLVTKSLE
# UniProt Q02248: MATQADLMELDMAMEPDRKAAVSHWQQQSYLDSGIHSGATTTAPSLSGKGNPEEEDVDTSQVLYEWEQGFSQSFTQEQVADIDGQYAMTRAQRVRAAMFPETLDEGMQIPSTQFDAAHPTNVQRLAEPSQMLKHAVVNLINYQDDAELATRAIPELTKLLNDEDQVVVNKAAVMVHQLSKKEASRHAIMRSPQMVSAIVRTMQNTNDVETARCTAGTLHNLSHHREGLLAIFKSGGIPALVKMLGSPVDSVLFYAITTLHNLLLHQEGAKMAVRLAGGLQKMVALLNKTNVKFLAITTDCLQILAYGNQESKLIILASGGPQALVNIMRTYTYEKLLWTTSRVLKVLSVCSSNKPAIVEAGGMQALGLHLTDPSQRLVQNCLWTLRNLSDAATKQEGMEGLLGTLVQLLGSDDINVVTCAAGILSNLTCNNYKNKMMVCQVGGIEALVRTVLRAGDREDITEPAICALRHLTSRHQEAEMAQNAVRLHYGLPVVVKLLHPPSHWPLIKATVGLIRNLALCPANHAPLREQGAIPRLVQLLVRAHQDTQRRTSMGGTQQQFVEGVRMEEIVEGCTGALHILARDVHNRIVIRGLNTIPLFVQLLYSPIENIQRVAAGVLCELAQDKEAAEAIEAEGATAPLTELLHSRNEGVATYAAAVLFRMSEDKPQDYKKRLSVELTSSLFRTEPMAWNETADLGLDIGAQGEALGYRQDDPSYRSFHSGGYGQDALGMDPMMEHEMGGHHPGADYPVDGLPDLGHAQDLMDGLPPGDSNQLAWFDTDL
# Molecular target: N-terminal 3xFLAG-tagged TCF-4 (UniProt Q9NQB0)
# Assay: co-IP; Neuro-2a cells transfected with 3xFLAG-TCF-4 and treated with control CM, Wnt3a CM or GO (0.5 mM)-treated Wnt3a CM; lysis in IP buffer (50 mM Tris/HCl pH 8.0, 150 mM NaCl, 5 mM EDTA, 1% Triton X-100); IP with anti-FLAG M2 on Protein A-sepharose CL-4B for 2 h, 3 washes; Western blot for endogenous β-catenin
substance,measurement,value
β-catenin (from UniProt Q02248 1-781),binding,binds

# Source: paper PMC6912562
